Measurements from PubChem BioAssay AID493014 (National Center for Advancing Translational Sciences (NCATS), 2011).
The whole screen tested about 340,000 compounds, of which about 170 (0.05%) were called active. Inconclusive results, whose numbers are uncertain, are shown with a selection of clear calls. The call rests on the fitted dose curve; in most records, active means well fitted inhibition curve with a large enough effect in the signal ratio, with a control signal flat (not every such curve was filed as active); inconclusive means small, poorly fitted or top-dose-only effect, or effect the other way, or a change in a side signal; inactive means flat fitted curve, though single readings scatter; the % refers to the signal ratio. Where the call is inconclusive, the potency comes from a doubtful curve fit.
Potency means the concentration at half of the fitted maximal effect.

Assay: qHTS Assay to Find Inhibitors of Chronic Active B-Cell Receptor Signaling;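 on activity change, negative = inhibition: plate controls were basal doxycycline-induced cells for no effect and cells given 10 µM MG132 for full effect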
Settings: ABC-DLBCL IkBa-CBG/CBR reporter, luminescence ratio (green luciferase fused to IkBa over red control in TMD8 lymphoma cells), 4 h; activity change, negative = inhibition: at 46.1 µM (top of the series) unless noted
Method in brief: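 Doxycycline induced both beetle luciferases in TMD8 lymphoma cells; IKK-driven degradation limits the IkappaBalpha-fused green signal, while red luminescence normalises for cell number and nonspecific effects. Compounds tested up to 46 uM, 4 hrs.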
For `COc1cccc(=O)c2c(C)n(CC(=O)c3ccccc3)c(C)c12`, the activity change, negative = inhibition was “inactive”. For `COCCN1Cc2cccc(C(=O)NC(C)CCc3ccco3)c2C1=O` (stereo not drawn), the Potency was inconclusive: 22.4 µM [falling, partial curve]. For `O=C(CSc1ccc(Br)cc1)NC1CCS(=O)(=O)C1` (stereo not drawn), the activity change, negative = inhibition was inconclusive: 4.06%. For `O=C(Cc1coc2ccc3ccccc3c12)Nc1nccs1`, the activity change, negative = inhibition was inconclusive: 28.1%. For `O=C(CSc1nnc(-c2cnccn2)n1Cc1ccco1)c1ccccc1`, the activity change, negative = inhibition was “inactive”. With `Nc1nc2ccccc2nc1N` the activity change, negative = inhibition was inconclusive: 9.86%. In the case of `CC(C)CC1NC(=S)N(Cc2ccccc2)C1=O` (stereo not drawn), the activity change, negative = inhibition is reported as inconclusive: 7.07%. For `CCOc1ccc(N2CC(C(=O)Nc3cccc(C(=O)NC4CC4)c3)CC2=O)cc1` (stereo not drawn), the activity change, negative = inhibition was “inactive”. In the case of `O=C(NCCn1cc(SCc2ccccc2)c2ccccc21)c1c(F)cccc1F`, the Potency is reported as inconclusive: 20.6 µM [falling, partial curve, poor fit]. For `Nc1nc(Nc2cccc(F)c2)nc2ccccc12`, the activity change, negative = inhibition was inconclusive: -3.86%. In the case of `COc1cccc(NC(=S)NCCC(c2ccccc2)c2ccccc2)c1`, the activity change, negative = inhibition is reported as “inactive”. In the case of `Cc1ccc(-c2cc(C(=O)NCc3ccc4c(c3)OCO4)[nH]n2)c(O)c1C`, the activity change, negative = inhibition is reported as inconclusive: -16.9%. In the case of `CC(C)Cn1c(SCC(=O)N2CCCc3ccccc32)nc2ccccc2c1=O`, the activity change, negative = inhibition is reported as “inactive”. With `Cc1[nH]c(=O)c(C(=O)/C=C/c2ccccc2F)c2c1CCCC2` the Potency was inconclusive: 2.51 µM [falling, full curve, poor fit]. In the case of `COc1ccc2[nH]c3c(c2c1)CCN1C(=O)C(CC(=O)NCc2ccco2)C[C@H](C(=O)N2CCOCC2)[C@@]31CCC1CCCC1` (stereo partly drawn), the activity change, negative = inhibition is reported as “inactive”. In the case of `CCOC(=O)C1=C(CC)Nc2ccccc2N=C1NC(=O)Nc1ccccc1OC`, the activity change, negative = inhibition is reported as inconclusive: -19.3%. In the case of `COc1ccc2c(Cl)c(C(N)=O)sc2c1`, the Potency is reported as inconclusive: 7.31 µM [falling, partial curve, poor fit]. For `Cc1ccc(CNC(=O)C2CC(c3cccc(F)c3)=NO2)cc1` (stereo not drawn), the activity change, negative = inhibition was “inactive”. In the case of `O=C1CCC/C=C/C[C@H](CC(=O)N(CCO)Cc2ccccc2)C(=O)N[C@@H](Cc2ccccc2)CO1`, the activity change, negative = inhibition is reported as “inactive”. For `CN(C)/C=C/C(=O)c1ccc(Cl)c([N+](=O)[O-])c1`, the activity change, negative = inhibition was inconclusive: 2.21%. In the case of `COc1ccc(OC)c(-c2cc(C(=O)NCc3cccs3)no2)c1`, the activity change, negative = inhibition is reported as inconclusive: -26.5%. With `Cc1ccc2sc(N(CCN(C)C)C(=O)/C=C/c3cccs3)nc2c1C` the Potency was inconclusive: 35.5 µM [falling, single point]. With `COCC(C)n1c(C)cc(C(=O)CSc2nnc(N)s2)c1C` (stereo not drawn) the Potency was inconclusive: 6.51 µM [rising, single point]. In the case of `CCOc1cccc2sc(N(CCCN(C)C)C(=O)c3ccc(S(=O)(=O)N(C)Cc4ccccc4)cc3)nc12`, the Potency is reported as inconclusive: 15.8 µM [falling, partial curve, poor fit]. With `CCNC(=O)COC(=O)c1cc(S(=O)(=O)N2CCCc3ccccc32)ccc1Cl` the activity change, negative = inhibition was inconclusive: -9.8%. In the case of `CCN(CC)S(=O)(=O)c1ccc(NC(=O)CCC2CCCCC2)cc1`, the Potency is reported as inconclusive: 29.1 µM [falling, single point]. With `Cn1nc([N+](=O)[O-])nc1Oc1ccc2ccccc2c1` the activity change, negative = inhibition was inconclusive: 17.9%. For `COc1cc(CN2CCN(C(c3ccccc3)c3ccccc3)CC2)cc(OC)c1OC`, the activity change, negative = inhibition was inconclusive: 1.85%. For `Clc1cccc(C2CCN(Cc3nc(CC4CC4)no3)C2)c1` (stereo not drawn), the activity change, negative = inhibition was inconclusive: 6.44%. In the case of `Cc1ccc(-c2csc3nc(-c4ccncc4)[nH]c(=O)c23)cc1`, the activity change, negative = inhibition is reported as “inactive”. With `Nc1cc2ccccc2oc1=O` the Potency was inconclusive: 29.1 µM [falling, single point]. For `COc1ccc(S(=O)(=O)/N=C2\C=C(NS(=O)(=O)c3ccccc3)C(=O)c3ccccc32)cc1`, the Potency was inconclusive: 22.4 µM [falling, single point]. For `O=C(NCCN1CCOCC1)c1cnn2c(-c3ccccc3)cc(-c3ccccc3)nc12`, the activity change, negative = inhibition was “inactive”. For `COc1cccc(NC2=C(C#N)C(=O)NC(c3cccc(OC)c3O)S2)c1` (stereo not drawn), the Potency was inconclusive: 12.6 µM [falling, single point]. With `CCn1c(SCC(=O)Nc2cccc(O)c2)nc2c1c(=O)n(C)c(=O)n2C` the activity change, negative = inhibition was inconclusive: -14.2%. For `Cc1cc(C)c(C#N)c(Nc2ccccc2Cl)n1`, the activity change, negative = inhibition was “inactive”. With `CC(=O)Nc1cccc(NC(=S)Nc2ccc(F)c(Cl)c2)c1` the activity change, negative = inhibition was inconclusive: 8.38%. With `CCN(C)c1ccc(/C=N\n2nnnc2N)cc1` the activity change, negative = inhibition was inconclusive: -18.3%. With `Cc1ccc(NC(=O)Cc2cc(C(=O)O)c3ccccc3n2)c(C)c1` the activity change, negative = inhibition was “inactive”. For `Cc1c(NC(=O)/C(C#N)=C/c2ccc(-c3ccccc3Cl)o2)c(=O)n(-c2ccccc2)n1C`, the activity change, negative = inhibition was inconclusive: 10.4%. With `CNS(=O)(=O)c1cccc(C(=O)OCC(=O)c2cc(C)n(-c3ccc4c(c3)OCO4)c2C)c1` the Potency was inconclusive: 20.6 µM [falling, single point]. For `COCCn1c(-c2ccc(Br)cc2)csc1=Nc1cccnc1`, the activity change, negative = inhibition was “inactive”. With `COc1cc(OC)cc(-c2sc3ccc(OC)cc3c2C#CCCO)c1` the Potency was inconclusive: 29.1 µM [falling, single point]. For `CCOC(=O)c1sc2nc(C)nc(NCc3cccnc3)c2c1C`, the activity change, negative = inhibition was inconclusive: 8.1%. In the case of `COc1ccc(/C=c2\s/c(=C/C(=O)c3ccc(C)cc3)[nH]c2=O)cc1OC`, the activity change, negative = inhibition is reported as inconclusive: 5.27%. For `N#Cc1ccccc1S(=O)(=O)N1CCN(C(=O)CN2C(=O)NC3(CCCC3)C2=O)CC1`, the activity change, negative = inhibition was inconclusive: -8.76%. With `Cn1c(NCc2c(O)ccc3ccccc23)nc2ccccc21` the activity change, negative = inhibition was inconclusive: 16.7%. For `CCCn1c2ccccc2c2cnn(CC(=O)NCCN(CC)CC)c(=O)c21`, the activity change, negative = inhibition was inconclusive: -2.61%. With `COc1cccc(NC(=O)CSc2nc3ccccc3c(=O)n2C)c1` the activity change, negative = inhibition was inconclusive: 0.134%. In the case of `CCn1c(SCC(=O)N2CCC(C)CC2)nc2c(c1=O)SC(C)C2` (stereo not drawn), the activity change, negative = inhibition is reported as inconclusive: 4.2%. With `Cc1ccc(Cl)cc1NC(=O)CCn1cccc1` the activity change, negative = inhibition was inconclusive: 4.02%. For `O=C(Cn1cc(C(=O)c2ccco2)c2ccccc21)NC1CC1`, the activity change, negative = inhibition was “inactive”. In the case of `COc1cc(-c2noc(C)c2/C=C/c2ccc(N)cc2)cc(OC)c1OC`, the Potency is reported as inconclusive: 4.47 µM [falling, partial curve, poor fit].
